Positions count from the first letter of the chain named. Results are given in words; binding and its absence hold for the method and conditions named. Binding seen in cells or lysates may run through a third protein. Some binding calls cover weakened binding; strength is not graded here. Tags and fused reporters may be left off the sequences shown.
Columns and labels:
[1] = target: T1, Flag-hEdc3-D443V-RFP (human) (UniProt Q96F86); test: co-IP; Flag-M2-agarose precipitation of Flag-hEdc3-RFP (WT or D443V) from HeLa cells transfected with 25 ug plasmid, about 20 hr after transfection, treated with 0.5 mM sodium arsenite for 1 hr; endogenous Edc3, Dcp1a and DDX6 detected by blot
T1 sequence: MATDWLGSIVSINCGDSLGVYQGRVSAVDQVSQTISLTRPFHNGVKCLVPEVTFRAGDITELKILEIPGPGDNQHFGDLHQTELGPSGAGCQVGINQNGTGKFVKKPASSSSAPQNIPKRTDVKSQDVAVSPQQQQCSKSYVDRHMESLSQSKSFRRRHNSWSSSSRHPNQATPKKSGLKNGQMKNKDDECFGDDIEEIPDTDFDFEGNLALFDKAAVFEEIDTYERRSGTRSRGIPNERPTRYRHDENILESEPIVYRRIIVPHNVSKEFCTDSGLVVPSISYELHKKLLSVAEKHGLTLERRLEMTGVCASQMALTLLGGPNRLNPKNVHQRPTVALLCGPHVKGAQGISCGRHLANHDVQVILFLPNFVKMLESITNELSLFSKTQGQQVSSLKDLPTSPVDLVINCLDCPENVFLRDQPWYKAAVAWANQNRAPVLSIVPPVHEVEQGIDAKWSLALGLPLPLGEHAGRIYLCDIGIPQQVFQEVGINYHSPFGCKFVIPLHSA

Flag-hEdc3-RFP (human) = target: T2, Flag-hEdc3-RFP (human) (UniProt Q96F86); test: as above
T2 sequence: T1 sequence with V443D

- binding [1]: binds
- binding (Flag-hEdc3-RFP (human)): binds
B1: endogenous Edc3 (protein, UniProt Q96F86 1-508)
chain: T1 sequence with V443D

Reference: paper PMC4059234, “Edc3 Function in Yeast and Mammals Is Modulated by Interaction with NAD-Related Compounds” (G3: Genes|Genomes|Genetics, 2014)
